From PubChem BioAssay AID1347075 (National Center for Advancing Translational Sciences (NCATS), 2019)
Out of some 400,000 compounds screened, about 5,500 (1.4%) were called active. This list was built around the results that the source calls inconclusive (neither active nor inactive); the mix of calls is not that of the screen. Calls come from the whole dose curve; as a rule, active = well fitted cell-killing curve with a large enough effect; inconclusive = small, poorly fitted or top-dose-only effect, or effect the other way; inactive = flat fitted curve, though single readings scatter. Potencies of inconclusive entries are doubtful fits and often do not repeat.

Experiment: qHTS assay for MDR1-selective chemotherapeutics: Primary screen using the parental adenocarcinoma cell KB-3-1; note: nearly all actives have a fitted effect of over 60% in size
Conditions: KB-3-1 viability, CellTiter-Glo ATP luminescence, 72 h; activity change, negative = cytotoxic: at 46.1 µM (top of the series)
Outline: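 Multi-concentration cytotoxicity screen in KB-3-1 cells grown in DMEM lacking phenol red with 10% FBS. After 72 h at 37 °C with compound, ATP-dependent luminescence was recorded.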
% is set by controls: 0 for no effect and ±100 for the full control effect; potency is the fitted concentration of half-maximal effect.

Row | SMILES | Potency | activity change, negative = cytotoxic
1 | O=C1CC(C(F)(F)C(F)(F)C(F)(F)F)=Nc2ccccc2N1 | inconclusive: 0.461 µM [rising, partial curve] | 
2 | CC(=O)Nc1ccc(NC(=O)C(C)OC(=O)c2cccs2)cc1 (configuration not stated) | inactive | 
3 | COc1cc(C2Nc3ccc4ncccc4c3C3=C2C(=O)CCC3)ccc1O (configuration not stated) | active: 3.26 µM | 
4 | O=C(/C=C/[C@H]1O[C@@H](n2ccc(=O)[nH]c2=O)[C@H](O)[C@@H]1O)NCc1ccco1 | inactive | 
5 | Cc1nn(Cc2ccc(C(=O)NC3CCCCC3)o2)c(C)c1Br | inactive | 
6 | COc1ccccc1CCNc1ncnc2nc[nH]c12 | inconclusive: 18.4 µM [cytotoxic, single point] | 
7 | CCOCCCNC(=O)C(c1ccc(C)cc1)N(Cc1ccc2c(c1)OCO2)C(=O)c1ccccc1O (configuration not stated) | inactive | 
8 | CC(O)(c1ccc(F)c(F)c1)c1nc(-c2ccc3ccccc3c2)cs1 (configuration not stated) |  | inconclusive: -30.7%
9 | COc1cccc(C2=CC(c3ccccc3F)n3ncc(C(=O)Nc4ccc(F)cc4)c3N2)c1 (configuration not stated) | inconclusive: 14.6 µM [cytotoxic, partial curve] | 
10 | NC(=O)c1ccc(N=Cc2ccc([N+](=O)[O-])s2)cc1 | inconclusive: 16.4 µM [cytotoxic, single point] | 
11 | O=C(NC1CCCCC1)C(C1CC1)n1c(=O)c(-c2cc3ccccc3[nH]2)nc2ccccc21 (configuration not stated) | inconclusive: 20.6 µM [cytotoxic, single point] | 
12 | Cc1ccc2[nH]c3c(c2c1)CCCC3C(N)=O (configuration not stated) | inactive | 
13 | Nc1ccc(O)c2c1C(=O)c1ccccc1C2=O | inactive | 
14 | Cc1ccc(/C=C2/CNC/C(=C/c3ccc(C)cc3)C2=O)cc1 | active: 3.26 µM | 
15 | CCOc1ccc(N(CC(=O)Nc2ccccc2OCC)S(=O)(=O)c2c(C)noc2C)cc1 | active: 3.26 µM | 
16 | Cc1ccc(C(=O)NC(=S)Nc2ccccc2N2CCCC2)cc1[N+](=O)[O-] | inactive | 
17 | COc1cccc2c1OC1(C)CC2NC(=O)N1c1cccc(C(=O)Nc2ccc3c(c2)OCCO3)c1 (configuration not stated) | inconclusive: 18.4 µM [cytotoxic, single point] | 
18 | Cc1ccc(Cl)cc1NC(=O)c1cnn2c1NC(c1ccco1)CC2C(F)(F)F (configuration not stated) | inactive | 
19 | COc1ccccc1NC(=O)CCSc1nnc(-c2ccncc2)o1 | inconclusive: 29.1 µM [rising, single point] | 
20 | O=C(Cc1ccccc1)NS(=O)(=O)c1ccccc1 | inactive | 
21 | CCOC(=O)N1CCc2c(sc(NCc3cc(OC)ccc3OC)c2C(=O)Nc2cc(OC)ccc2OC)C1 | inactive | 
22 | COC(=O)[C@@]12C[C@@H](CC(=O)NCC34CC5CC(CC(C5)C3)C4)C(=O)N(Cc3ccccc3)C1=CCC(C)(C)C2 | inconclusive: 29.1 µM [cytotoxic, single point] | 
23 | O=C(/C=C/c1ccco1)Nc1ccc(-c2nc3ccccc3[nH]2)cc1 | inconclusive: 3.26 µM [rising, full curve, poor fit] | 
24 | COCCNC(=S)N/N=C(\C)c1cccc(OC)c1 | inactive | 

Row | SMILES | Potency | activity change, negative = cytotoxic
25 | COc1cc2c(cc1NC(=O)c1ccc(C(C)(C)C)cc1)CCCC2 | inconclusive: 2.59 µM [cytotoxic, full curve] | 
26 | CN1CCN(C2=Cc3ccccc3Sc3cc(F)c(Cl)cc32)CC1 | inconclusive: 29.1 µM [cytotoxic, single point] | 
27 | COc1cccc(NC(=O)CN(C)C(=O)CCCc2c[nH]c3ccccc23)c1 | inconclusive: 2.31 µM [cytotoxic, full curve] | 
28 | Cc1ccc2[nH]c(O)c(N=O)c2c1 | inconclusive: 18.4 µM [cytotoxic, partial curve] | 
29 | Cn1c(CCN2CCCC2)nc2cc(NS(=O)(=O)c3ccccc3)ccc21 | inconclusive: 20.6 µM [cytotoxic, single point] | 
30 | Cn1c2ccccc2c(=O)c2c(=O)n(Cc3ccco3)c(COc3ccccc3)nc21 | active: 7.31 µM | 
31 | Cc1ccc(CN2C(=O)C3(SCC(=O)N3c3ccc(C)c(C)c3)c3ccccc32)cc1 (configuration not stated) | active: 20.6 µM | 
32 | O=C(c1ccccc1)N1CCC(c2nc(-c3ccc(S(=O)(=O)NCC4CCCO4)cc3)no2)CC1 (configuration not stated) | active: 8.2 µM | 
33 | Nc1cc2c(cc1Br)[nH]c(=O)c1ccccc12 | inconclusive: 29.1 µM [cytotoxic, single point] | 
34 | COc1ccccc1CN(Cc1cc2c(C)ccc(C)c2[nH]c1=O)Cc1nnnn1Cc1ccco1 | inconclusive: 23.1 µM [cytotoxic, single point] | 
35 | C=CCOC(=O)/C=C/C(=O)NC(N)=O | inactive | 
36 | O=C(c1ccc(Cn2c(=S)[nH]c3ccc(Br)cc3c2=O)cc1)N1CCN(C2CCCCC2)CC1 | inconclusive: 29.1 µM [cytotoxic, single point] | 
37 | CC(Oc1ccc(Cl)cc1Cl)C(=O)Nc1ccc2oc(-c3ccncc3)nc2c1 (configuration not stated) | inconclusive: 29.1 µM [cytotoxic, single point] | 
38 | O=S(=O)(c1ccc(Cl)cc1)N1CCN(CCc2ccncc2)CC1 | inactive | 
39 | Cc1ccc(-c2nnc(SCc3ccc(C#N)cc3)n2Cc2ccco2)cc1 | inactive | 
40 | CCOC(=O)c1nnc(-c2cccs2)nc1Oc1ccccc1C(=O)OC | inconclusive: 25.9 µM [rising, single point] | 
41 | CCn1cc(S(=O)(=O)c2ccccc2)c(=O)c2cc(F)c(N3CCCCCC3)cc21 | inactive | 
42 | CC1(C(=O)NS(=O)(=O)c2ccc(C#N)cc2)CCN1C(=O)Cc1ccc(Cl)cc1Cl (configuration not stated) | inconclusive: 29.1 µM [cytotoxic, single point] | 
43 | Cc1ccccc1C(=O)NNC(=S)NC(=O)c1ccccc1 | inconclusive: 25.9 µM [cytotoxic, single point] | 
44 | Cc1ccc(-n2nc(C)c3c(C)c(CCC(=O)NCc4cccc(Cl)c4)c(C)nc32)cc1C | inactive | 
45 | Cc1cc(C(=O)N/N=C/c2cc(Cl)cc([N+](=O)[O-])c2O)c2ccccc2n1 | inconclusive: 29.1 µM [cytotoxic, single point] | 
46 | COc1ccc(CN(CCC(C)C)S(=O)(=O)c2ccccc2Br)cc1 | inconclusive: 20.6 µM [cytotoxic, partial curve, poor fit] | 
47 | Cc1ccc([C@@H]2CC(=O)[C@@H]3CN(S(=O)(=O)c4ccc(C)cc4)[C@H](c4cccc(Cl)c4)C[C@@H]3N2S(=O)(=O)c2ccc(Cl)cc2)cc1 | inactive | 

Arranged by length of the SMILES (ascending): part of the list above.
Row | SMILES | Potency | activity change, negative = cytotoxic
19 | COc1ccccc1NC(=O)CCSc1nnc(-c2ccncc2)o1 | inconclusive: 29.1 µM [rising, single point] | 
45 | Cc1cc(C(=O)N/N=C/c2cc(Cl)cc([N+](=O)[O-])c2O)c2ccccc2n1 | inconclusive: 29.1 µM [cytotoxic, single point] | 
11 | O=C(NC1CCCCC1)C(C1CC1)n1c(=O)c(-c2cc3ccccc3[nH]2)nc2ccccc21 (configuration not stated) | inconclusive: 20.6 µM [cytotoxic, single point] | 
